According to US12097262B2, “mTORC1 inhibitors” (THE REGENTS OF THE UNIVERSITY OF CALIFORNIA, priority 2014, dated 2024):
Some entries share one result that the patent states for a list of compounds.

System: mTORC1 and mTORC2
Assay: Western blot analysis of mTORC1/mTORC2 inhibition in MCF-7 cells
Format: cell-based
Settings: 4 hours, western blot (FIG. 13A)
Protocol: FIGS. 13A-13B. FIG. 13A: MCF-7 cells were treated for 4 hours with E1035 and M1071 before harvesting. FIG. 13B: SNU-449 cells were treated with 3 hours with E1010 before harvesting. Cells were lysed and blotted for the indicated proteins. M1071 has the narrowest concentration range between mTORC1 and mTORC2 inhibition. The concentration range between mTORC1 and mTORC2 inhibition widens for E1035.
Cell Culture and Western Blot Analysis. Cells were grown in 6-well plates and treated with inhibitor at the indicated concentrations or with vehicle (0.1% DMSO). Treated cells were lysed, and lysates were resolved by SDS-PAGE, transferred to nitrocellulose and blotted. All antibodies were purchased from Cell Signaling Technology.

CO[C@H]1C[C@@H]2CC[C@@H](C)[C@@](O)(O2)C(=O)C(=O)N2CCCC[C@H]2C(=O)O[C@H]([C@H](C)C[C@@H]2CC[C@@H](OCCOCc3cn(CCOCCOCCOCCOCCOCCOCCOCCOCCC(=O)NCCCCn4nc(-c5ccc6oc(N)nc6c5)c5c(N)ncnc54)nn3)[C@H](OC)C2)CC(=O)[C@H](C)/C=C(\C)[C@@H](O)[C@@H](OC)C(=O)[C@H](C)C[C@H](C)/C=C/C=C/C=C/1C [Compound M-1071, 40-O-(2-((1-(32-(4-amino-3-(2-aminobenzo[d]oxazol-5-yl)-1H-pyrazolo[3,4-d]pyrimidin-1-yl)-27-oxo-3,6,9,12,15,18,21,24-octaoxa-28-azadotriacontyl)-1H-1,2,3-triazol-4-yl)methoxy)ethyl)-rapamycin]
mTORC1 inhibition concentration range: 10 to 25 nM
